Data: patent US20130023553A1, “PEGYLATED OPIOIDS WITH LOW POTENTIAL FOR ABUSE AND SIDE EFFECTS” (Nektar Therapeutics, priority 2010, published 2013)

Legend:
[1] = In situ rat brain perfusion (rate of brain penetration, Kin); details: following perfusion
[2] = in vivo; details: rat, iv, 25 mg/kg

CC(C)NCC(O)COc1ccc(CC(N)=O)cc1 (centres unmarked) [Atenolol, atenolol]
vascular space marked by atenolol [1]: ≤ 20 μL/g of brain tissue | Kp at 1 h [2]: 0.11
